PubChem BioAssay (EPA / NIEHS)
The inconclusive results got no clear call from the source; some entries with a clear call stand among them for comparison. For some assays here: Potencies beside an inconclusive call are fits to weak or partial responses and may not hold up. Active and inactive are the calls of the source. The calls were made as follows: active = hit-call score of the fitted dose curve at least 0.9, where 1 is the maximum; inconclusive = response in the unintended direction; inactive = score below 0.9.

By UniProt entry, the sequences of proteins in these tests, tags left out. Where a name states a change or a piece, a line headed by the entry shows the natural chain unless it says otherwise.
UniProt O75582, whole entry, looked up: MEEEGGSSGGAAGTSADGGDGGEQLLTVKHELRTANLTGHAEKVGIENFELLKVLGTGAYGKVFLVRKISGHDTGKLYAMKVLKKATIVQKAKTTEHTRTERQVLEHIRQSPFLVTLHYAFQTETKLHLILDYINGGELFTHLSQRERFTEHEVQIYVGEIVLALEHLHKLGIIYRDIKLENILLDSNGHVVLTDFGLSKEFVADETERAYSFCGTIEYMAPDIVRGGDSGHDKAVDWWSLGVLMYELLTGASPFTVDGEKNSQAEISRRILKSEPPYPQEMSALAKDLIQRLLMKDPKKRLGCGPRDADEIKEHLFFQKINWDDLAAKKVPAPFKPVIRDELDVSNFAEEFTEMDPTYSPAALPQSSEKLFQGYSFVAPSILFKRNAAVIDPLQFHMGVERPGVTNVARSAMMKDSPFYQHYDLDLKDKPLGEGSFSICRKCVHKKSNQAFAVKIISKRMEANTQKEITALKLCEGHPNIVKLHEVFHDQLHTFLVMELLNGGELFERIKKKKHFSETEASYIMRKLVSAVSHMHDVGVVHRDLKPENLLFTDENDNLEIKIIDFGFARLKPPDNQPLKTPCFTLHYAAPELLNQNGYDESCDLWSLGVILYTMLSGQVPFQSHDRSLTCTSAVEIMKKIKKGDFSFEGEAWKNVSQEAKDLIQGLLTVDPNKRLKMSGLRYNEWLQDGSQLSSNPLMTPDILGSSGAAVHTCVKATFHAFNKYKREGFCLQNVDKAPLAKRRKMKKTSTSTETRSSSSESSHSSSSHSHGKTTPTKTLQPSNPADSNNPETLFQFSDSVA
UniProt P62136, whole entry, looked up: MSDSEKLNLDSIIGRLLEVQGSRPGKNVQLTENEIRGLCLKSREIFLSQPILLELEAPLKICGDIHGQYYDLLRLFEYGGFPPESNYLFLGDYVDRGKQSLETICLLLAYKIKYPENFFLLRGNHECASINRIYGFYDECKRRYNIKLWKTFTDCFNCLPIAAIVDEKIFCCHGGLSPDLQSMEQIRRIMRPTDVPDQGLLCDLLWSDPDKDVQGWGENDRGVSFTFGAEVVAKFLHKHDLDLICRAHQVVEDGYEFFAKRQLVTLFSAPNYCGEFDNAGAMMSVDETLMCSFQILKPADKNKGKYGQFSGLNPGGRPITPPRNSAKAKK
UniProt P18031: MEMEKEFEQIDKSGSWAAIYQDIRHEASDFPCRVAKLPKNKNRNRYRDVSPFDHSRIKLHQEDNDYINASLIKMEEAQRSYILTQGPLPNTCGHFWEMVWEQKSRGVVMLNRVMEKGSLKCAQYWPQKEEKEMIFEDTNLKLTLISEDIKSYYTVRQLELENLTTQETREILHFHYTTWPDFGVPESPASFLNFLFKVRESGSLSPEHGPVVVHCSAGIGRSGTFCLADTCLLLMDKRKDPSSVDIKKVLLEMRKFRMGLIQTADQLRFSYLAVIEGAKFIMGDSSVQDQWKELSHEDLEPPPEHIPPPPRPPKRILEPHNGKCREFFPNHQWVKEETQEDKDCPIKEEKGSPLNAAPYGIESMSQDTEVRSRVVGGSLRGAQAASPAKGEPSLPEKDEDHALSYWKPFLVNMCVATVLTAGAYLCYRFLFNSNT
UniProt Q8IXJ6: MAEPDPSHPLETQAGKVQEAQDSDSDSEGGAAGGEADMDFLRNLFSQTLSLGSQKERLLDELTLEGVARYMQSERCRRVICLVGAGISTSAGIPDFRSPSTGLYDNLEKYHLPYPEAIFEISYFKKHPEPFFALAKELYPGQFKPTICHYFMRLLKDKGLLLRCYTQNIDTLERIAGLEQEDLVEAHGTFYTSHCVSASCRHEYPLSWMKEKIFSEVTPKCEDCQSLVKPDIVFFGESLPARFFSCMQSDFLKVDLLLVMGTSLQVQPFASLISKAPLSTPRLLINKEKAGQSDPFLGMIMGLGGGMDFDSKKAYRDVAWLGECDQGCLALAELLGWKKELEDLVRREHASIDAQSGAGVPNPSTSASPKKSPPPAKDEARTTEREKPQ
UniProt P29350: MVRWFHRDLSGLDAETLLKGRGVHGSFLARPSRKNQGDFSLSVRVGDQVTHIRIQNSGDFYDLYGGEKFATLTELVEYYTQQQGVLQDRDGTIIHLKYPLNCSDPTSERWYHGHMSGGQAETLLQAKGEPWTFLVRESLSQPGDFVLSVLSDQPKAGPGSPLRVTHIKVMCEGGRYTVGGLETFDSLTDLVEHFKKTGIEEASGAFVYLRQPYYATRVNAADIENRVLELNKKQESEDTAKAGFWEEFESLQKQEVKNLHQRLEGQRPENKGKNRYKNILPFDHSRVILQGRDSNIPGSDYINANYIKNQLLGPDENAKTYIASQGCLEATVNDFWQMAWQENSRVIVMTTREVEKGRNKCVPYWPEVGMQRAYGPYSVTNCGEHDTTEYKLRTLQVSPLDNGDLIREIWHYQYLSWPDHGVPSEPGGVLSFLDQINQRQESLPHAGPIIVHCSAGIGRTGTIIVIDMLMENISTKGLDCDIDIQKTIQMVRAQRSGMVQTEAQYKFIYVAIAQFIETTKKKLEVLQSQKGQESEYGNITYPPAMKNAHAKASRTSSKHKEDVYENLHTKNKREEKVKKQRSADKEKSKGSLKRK
UniProt P10276, whole entry, looked up: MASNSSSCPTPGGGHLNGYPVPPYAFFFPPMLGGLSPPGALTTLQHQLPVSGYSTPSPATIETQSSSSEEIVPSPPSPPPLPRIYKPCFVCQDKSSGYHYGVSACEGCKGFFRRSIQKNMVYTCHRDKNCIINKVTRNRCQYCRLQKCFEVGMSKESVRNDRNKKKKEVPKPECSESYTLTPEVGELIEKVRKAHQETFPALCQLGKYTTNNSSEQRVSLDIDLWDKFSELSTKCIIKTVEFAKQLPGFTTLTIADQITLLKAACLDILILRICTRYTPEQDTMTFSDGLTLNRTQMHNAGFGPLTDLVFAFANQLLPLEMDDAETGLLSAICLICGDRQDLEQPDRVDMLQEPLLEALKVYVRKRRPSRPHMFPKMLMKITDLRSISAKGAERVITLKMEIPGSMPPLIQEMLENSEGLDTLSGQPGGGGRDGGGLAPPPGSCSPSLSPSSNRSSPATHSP
UniProt P05177, whole entry, looked up: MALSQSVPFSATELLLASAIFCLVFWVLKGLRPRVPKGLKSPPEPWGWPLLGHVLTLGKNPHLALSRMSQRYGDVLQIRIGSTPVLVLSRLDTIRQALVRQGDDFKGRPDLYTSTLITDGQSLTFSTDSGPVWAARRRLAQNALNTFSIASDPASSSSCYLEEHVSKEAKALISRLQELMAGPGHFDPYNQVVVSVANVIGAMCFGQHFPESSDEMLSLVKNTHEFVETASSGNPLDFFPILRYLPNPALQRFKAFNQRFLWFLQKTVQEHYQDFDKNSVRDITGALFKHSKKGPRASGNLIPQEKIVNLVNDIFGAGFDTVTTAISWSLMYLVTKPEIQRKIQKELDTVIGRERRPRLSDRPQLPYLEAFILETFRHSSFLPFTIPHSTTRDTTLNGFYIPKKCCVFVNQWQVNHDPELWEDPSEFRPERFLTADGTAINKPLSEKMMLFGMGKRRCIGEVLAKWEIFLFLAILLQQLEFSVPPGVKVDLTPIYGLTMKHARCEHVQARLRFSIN
UniProt P35367, whole entry, looked up: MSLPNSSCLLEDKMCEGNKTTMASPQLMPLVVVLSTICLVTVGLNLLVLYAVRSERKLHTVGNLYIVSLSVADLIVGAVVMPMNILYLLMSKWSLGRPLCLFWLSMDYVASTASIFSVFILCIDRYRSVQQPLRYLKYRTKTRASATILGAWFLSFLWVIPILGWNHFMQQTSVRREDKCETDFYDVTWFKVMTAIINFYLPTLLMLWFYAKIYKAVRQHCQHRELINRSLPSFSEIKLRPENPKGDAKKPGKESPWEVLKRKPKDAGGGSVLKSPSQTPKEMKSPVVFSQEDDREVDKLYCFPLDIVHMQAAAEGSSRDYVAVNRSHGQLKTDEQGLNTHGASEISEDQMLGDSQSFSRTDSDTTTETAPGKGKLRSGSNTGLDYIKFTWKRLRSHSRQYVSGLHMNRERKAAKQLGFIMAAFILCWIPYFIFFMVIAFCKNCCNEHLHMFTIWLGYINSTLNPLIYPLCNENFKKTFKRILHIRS
UniProt P08173, whole entry, looked up: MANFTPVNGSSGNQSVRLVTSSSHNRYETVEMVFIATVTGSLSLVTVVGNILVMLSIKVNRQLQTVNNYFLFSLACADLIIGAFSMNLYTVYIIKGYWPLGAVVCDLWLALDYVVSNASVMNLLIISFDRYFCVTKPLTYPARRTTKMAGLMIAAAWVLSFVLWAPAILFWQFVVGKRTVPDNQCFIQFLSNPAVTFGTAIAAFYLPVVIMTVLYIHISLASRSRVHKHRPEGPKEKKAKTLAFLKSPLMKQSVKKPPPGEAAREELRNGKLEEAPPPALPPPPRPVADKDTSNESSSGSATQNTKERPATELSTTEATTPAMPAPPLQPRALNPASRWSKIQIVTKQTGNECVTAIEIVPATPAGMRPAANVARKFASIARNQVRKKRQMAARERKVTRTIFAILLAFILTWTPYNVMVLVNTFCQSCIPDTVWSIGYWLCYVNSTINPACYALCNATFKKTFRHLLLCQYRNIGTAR
UniProt P19327, whole entry, looked up: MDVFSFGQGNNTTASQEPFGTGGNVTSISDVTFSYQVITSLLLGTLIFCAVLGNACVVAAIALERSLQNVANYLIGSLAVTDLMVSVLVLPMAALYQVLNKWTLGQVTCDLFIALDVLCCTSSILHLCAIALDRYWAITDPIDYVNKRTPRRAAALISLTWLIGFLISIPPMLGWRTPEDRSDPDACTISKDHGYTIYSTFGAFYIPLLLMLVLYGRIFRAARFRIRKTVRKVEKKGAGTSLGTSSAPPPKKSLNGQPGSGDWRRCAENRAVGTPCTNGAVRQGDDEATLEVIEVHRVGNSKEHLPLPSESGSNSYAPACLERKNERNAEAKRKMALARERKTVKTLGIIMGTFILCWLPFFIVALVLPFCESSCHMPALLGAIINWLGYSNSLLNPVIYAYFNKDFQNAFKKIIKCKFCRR
UniProt P19328, whole entry, looked up: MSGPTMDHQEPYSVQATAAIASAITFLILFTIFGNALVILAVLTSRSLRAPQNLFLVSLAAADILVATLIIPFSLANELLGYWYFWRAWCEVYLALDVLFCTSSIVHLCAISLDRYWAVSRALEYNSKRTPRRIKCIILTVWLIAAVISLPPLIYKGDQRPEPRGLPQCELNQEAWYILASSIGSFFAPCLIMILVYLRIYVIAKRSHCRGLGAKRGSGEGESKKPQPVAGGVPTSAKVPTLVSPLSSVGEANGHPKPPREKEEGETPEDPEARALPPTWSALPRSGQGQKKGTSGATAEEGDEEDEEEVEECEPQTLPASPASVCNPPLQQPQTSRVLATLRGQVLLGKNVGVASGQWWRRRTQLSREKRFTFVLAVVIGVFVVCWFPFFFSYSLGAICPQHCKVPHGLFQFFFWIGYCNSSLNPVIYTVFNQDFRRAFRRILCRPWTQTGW
UniProt Q12809: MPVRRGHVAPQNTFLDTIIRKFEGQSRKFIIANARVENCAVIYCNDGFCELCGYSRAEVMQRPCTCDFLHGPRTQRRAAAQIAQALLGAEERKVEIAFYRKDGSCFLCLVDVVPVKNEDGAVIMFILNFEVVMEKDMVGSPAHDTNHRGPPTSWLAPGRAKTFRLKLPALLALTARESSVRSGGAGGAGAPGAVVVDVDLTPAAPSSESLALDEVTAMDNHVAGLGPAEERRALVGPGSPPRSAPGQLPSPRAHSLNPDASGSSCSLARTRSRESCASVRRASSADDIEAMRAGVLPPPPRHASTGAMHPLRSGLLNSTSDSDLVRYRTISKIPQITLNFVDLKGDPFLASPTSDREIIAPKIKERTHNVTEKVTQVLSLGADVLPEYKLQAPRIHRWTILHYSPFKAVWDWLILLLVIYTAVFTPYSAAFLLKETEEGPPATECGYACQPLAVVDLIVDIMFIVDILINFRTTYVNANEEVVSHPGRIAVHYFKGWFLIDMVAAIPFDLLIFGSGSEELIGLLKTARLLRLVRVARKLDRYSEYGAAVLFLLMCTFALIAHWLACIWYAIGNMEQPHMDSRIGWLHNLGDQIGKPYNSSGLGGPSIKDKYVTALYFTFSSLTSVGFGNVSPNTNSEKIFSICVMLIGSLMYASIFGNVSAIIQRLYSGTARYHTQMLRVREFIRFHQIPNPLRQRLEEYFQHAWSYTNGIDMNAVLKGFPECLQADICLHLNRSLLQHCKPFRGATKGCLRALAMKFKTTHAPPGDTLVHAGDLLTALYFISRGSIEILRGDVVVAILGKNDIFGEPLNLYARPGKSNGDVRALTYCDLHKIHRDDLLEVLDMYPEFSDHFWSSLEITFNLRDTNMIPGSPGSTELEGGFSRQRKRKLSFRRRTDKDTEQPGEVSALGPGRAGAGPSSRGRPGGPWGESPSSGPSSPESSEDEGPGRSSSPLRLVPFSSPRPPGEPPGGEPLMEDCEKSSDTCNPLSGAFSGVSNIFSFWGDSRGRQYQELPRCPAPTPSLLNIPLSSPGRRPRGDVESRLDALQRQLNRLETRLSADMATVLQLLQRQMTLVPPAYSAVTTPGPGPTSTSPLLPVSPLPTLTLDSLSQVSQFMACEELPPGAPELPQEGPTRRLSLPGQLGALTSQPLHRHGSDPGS

Legend:
[1] = target: human Casein Kinase 1-delta (CK1D), CSNK1D (gene 1453) (UniProt P48730); experiment: NVS_ENZ_hCK1D: NovaScreen (NVS) Enzymatic Assay for human Casein Kinase 1-delta (CK1D) (AID 2283148)
Method in brief: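 Recombinant human CK1-delta, cell-free; fluorescent substrate with electrophoretic mobility-shift separation of product, read 1 h after dosing. Single 25 uM duplicate screen, then concentration-response up to 50 uM; loss of signal vs DMSO.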

[2] = target: Glycogen synthase kinase-3 beta (Homo sapiens) (UniProt P49841); experiment: NVS_ENZ_hGSK3b: NovaScreen (NVS) Enzymatic Assay for human Glycogen Synthase Kinase-3 beta (GSK3b) (AID 2283165)
Method in brief: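 Recombinant enzyme with specific fluorescent substrate, 1 h, product separated by electrophoretic mobility shift. Primary duplicate screen at 25 uM; actives (e.g. 30% inhibition) followed in singleton concentration-response to 50 uM. Signal loss fitted versus DMSO.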

[3] = target: Mitogen-activated protein kinase 3 (Homo sapiens) (UniProt P27361); experiment: NVS_ENZ_hMAPK3: NovaScreen (NVS) Enzymatic Assay for human Mitogen-Activated Protein Kinase 3 (MAPK 3) (AID 2283177)
Method in brief: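 Cell-free enzymatic assay with recombinant protein and specific substrate; fluorescence and electrophoretic mobility shift read-out 1 h after dosing. Primary screen duplicate at 25 uM; actives then run in concentration-response up to 50 uM, loss of signal versus DMSO.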

[4] = target: human Mitogen- and Stress-activated Protein Kinase-1 (Msk1), RPS6KA5 (gene 9252) (UniProt O75582); experiment: NVS_ENZ_hMsk1: NovaScreen (NVS) Enzymatic Assay for human Mitogen- and Stress-activated Protein Kinase-1 (Msk1) (AID 2283187)
Method in brief: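 Recombinant kinase with fluorescent substrate; product separated by electrophoretic mobility shift, read 1 h after dosing. Screened in duplicate at 25 uM; hits (e.g. ≥30% inhibition) tested in concentration–response up to 50 uM. DMSO baseline.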

[5] = target: Serine/threonine-protein phosphatase PP1-alpha catalytic subunit (Homo sapiens) (UniProt P62136); experiment: NVS_ENZ_hPPP1CA: NovaScreen (NVS) Enzymatic Assay for human Protein Phosphatase 1 Aatalytic subunit Alpha (PPP1CA) (AID 2283200)
Method in brief: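 Recombinant enzyme activity read by fluorescence with electrophoretic mobility shift separating substrate from product, 1.33 h after dosing; loss of signal vs DMSO baseline. Primary screen in duplicate at 25 uM; actives retested in concentration-response up to 50 uM.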

[6] = target: human Protein Tyrosine Phosphatase Non-receptor Type 1 (PTPN1), PTPN1 (gene 5770) (UniProt P18031); experiment: NVS_ENZ_hPTPN1: NovaScreen (NVS) Enzymatic Assay for human Protein Tyrosine Phosphatase Non-receptor Type 1 (PTPN1) (AID 2283201)
Method in brief: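 Cell-free fluorogenic-substrate activity assay on recombinant enzyme, read 1.33 h after dosing by fluorescence and electrophoretic mobility shift; loss of signal vs DMSO baseline. Primary screen in duplicate at 25 uM, hits then run in concentration-response up to 50 uM.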

[7] = target: Tyrosine-protein phosphatase non-receptor type 13 (Homo sapiens) (UniProt Q12923); experiment: NVS_ENZ_hPTPN13: NovaScreen (NVS) Enzymatic Assay for human Protein Tyrosine Phosphatase Non-receptor Type 13 (PTPN13) (AID 2283205)
Method in brief: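 Cell-free assay of recombinant human PTPN13 with a fluorescent substrate, product separated by electrophoretic mobility shift and read 0.5 h after dosing. Primary screen at 25 uM in duplicate, then concentration-response up to 50 uM. Loss of signal fitted against DMSO.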

[8] = target: Tyrosine-protein phosphatase non-receptor type 14 (Homo sapiens) (UniProt Q15678); experiment: NVS_ENZ_hPTPN14: NovaScreen (NVS) Enzymatic Assay for human Protein Tyrosine Phosphatase Non-receptor Type 14 (PTPN14) (AID 2283206)
Method in brief: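 Cell-free recombinant human PTPN14 with fluorescent substrate, read 0.5 h after dosing by fluorescence and electrophoretic mobility shift separating substrate from product. Primary screen at 25 uM in duplicate; hits run to 50 uM maximum; loss of signal versus DMSO.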

[9] = target: human Sirtuin 2 (SIRT2), SIRT2 (gene 22933) (UniProt Q8IXJ6); experiment: NVS_ENZ_hSIRT2: NovaScreen (NVS) Enzymatic Assay for human Sirtuin 2 (SIRT2) (AID 2283217)
Method in brief: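 Cell-free recombinant human SIRT2, fluorescent substrate with product separated by electrophoretic mobility shift, 1 hr. Screened in duplicate at 25 uM; hits rerun singly in concentration-response up to 50 uM, relative to DMSO.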

[10] = target: human Protein Tyrosine Phosphatase Non-receptor Type 6 (PTPN6), PTPN6 (gene 5777) (UniProt P29350); experiment: NVS_ENZ_hPTPN6: NovaScreen (NVS) Enzymatic Assay for human Protein Tyrosine Phosphatase Non-receptor Type 6 (PTPN6) (AID 2283210)
Method in brief: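 Cell-free assay with recombinant PTPN6 expressed in SF9 cells, fluorescent substrate, product separated from substrate by electrophoretic mobility shift; read 1.33 hours after dosing. Primary screen in duplicate at 25 uM, actives retested in concentration series; DMSO baseline.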

[11] = target: Retinoic acid receptor alpha (Homo sapiens) (UniProt P10276); experiment: NVS_NR_hRAR_Antagonist: NovaScreen (NVS) Nuclear Receptor Binding Assay for human Retinoic Acid Alpha Receptor Antagonism (RAR) (AID 2283358)
Method in brief: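 TR-FRET, cell-free, antagonist format; 2 h incubation after dosing; DMSO = baseline; signal loss fitted; 25 uM duplicate primary, then conc. series.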

[12] = target: human CYP1A2, CYP1A2 (gene 1544) (UniProt P05177); experiment: NVS_ADME_hCYP1A2: NovaScreen (NVS) CYP450-related Enzyme Activity (ADME) Assay for human CYP1A2 (AID 2283102)
Method in brief: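 Fluorescence-intensity enzyme activity read-out, taken 0.5 h post-dosing, using insect-cell-derived recombinant CYP1A2 and specific fluorescent substrate. Acetonitrile served as negative control/baseline. Single-concentration duplicate screen at 10 uM, then concentration-response follow-up.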

[13] = target: human Histamine 1 Receptor (H1), HRH1 (gene 3269) (UniProt P35367); experiment: NVS_GPCR_hH1: NovaScreen (NVS) G Protein-Coupled Receptor Assay for human Histamine 1 Receptor (H1) (AID 2283268)
Method in brief: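 Cell-free radioligand displacement at human H1 receptor, 1 h, filter scintillation counting; primary screen 25 uM in duplicate, hits in concentration series; loss of binding fitted vs DMSO.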

[14] = target: human Muscarinic, M4 Receptor, CHRM4 (gene 1132) (UniProt P08173); experiment: NVS_GPCR_hM4: NovaScreen (NVS) G Protein-Coupled Receptor Assay for human Muscarinic, M4 Receptor (AID 2283274)
Method in brief: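 Cell-free radioligand displacement using CHO-derived human M4 receptor protein, 1 h after dosing; bound radioactivity by filtration and scintillation counting. Primary screen single 25 uM duplicate, actives followed in concentration series.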

[15] = target: Neuropeptide Y receptor type 2 (Homo sapiens) (UniProt P49146); experiment: NVS_GPCR_hNPY2: NovaScreen (NVS) G Protein-Coupled Receptor Assay for human Neuropeptide Receptor Y2 (NPY2) (AID 2283277)
Method in brief: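 Radioligand binding on membranes extracted from SK-N-MC cells, cell-free, read 1 h after dosing by filter-based scintillation counting. Loss of signal vs DMSO. Primary screen in duplicate at 25 uM; actives followed up in concentration-response up to 50 uM.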

[16] = target: rat Serotonin, 5-Hydroxytryptamine Receptor (5HT), Non-Selective Binding, Htr1a (gene 24473) (UniProt P19327); experiment: NVS_GPCR_r5HT_NonSelective: NovaScreen (NVS) G Protein-Coupled Receptor Assay for rat Serotonin, 5-Hydroxytryptamine Receptor (5HT), Non-Selective Binding (AID 2283295)
Method in brief: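 Radioligand displacement on rat cortical membranes, 1 h incubation, filter-based scintillation counting. Primary duplicates at 25 uM, actives retested in concentration series; loss of signal fitted against DMSO as baseline.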

[17] = target: Adra2b (gene 24174) (UniProt P19328); experiment: NVS_GPCR_rmAdra2B: NovaScreen (NVS) G Protein-Coupled Receptor Assay for hybird cells Adrenergic, Alpha 2B Receptor (Adra2B) (AID 2283306)
Method in brief: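 Radioligand filter-binding assay on membrane proteins from neuroglioma/blastoma hybrid cells (rodent), 1 h after dosing; scintillation counting, loss of signal vs DMSO. Primary screen in duplicate at 25 uM, actives then run in concentration series.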

[18] = target: human Constitutive Androstane Receptor (CAR), NR1I3 (gene 9970) (UniProt Q14994); experiment: NVS_NR_hCAR_Agonist: NovaScreen (NVS) Nuclear Receptor Binding Assay for human Constitutive Androstane Receptor Agonism (CAR) (AID 2283328)
Method in brief: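 Cell-free TR-FRET binding readout with extracted human CAR protein, read 1 h after dosing. Gain of signal fitted against DMSO baseline. Single-concentration duplicates at 25 uM, then concentration-response up to 50 uM for actives.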

[19] = target: Voltage-gated inwardly rectifying potassium channel KCNH2 (Homo sapiens) (UniProt Q12809); experiment: NVS_IC_hKhERGCh: NovaScreen (NVS) Ion Channel Assay for human Potassium Channel ERG (KhERGCh) (AID 2283333)
Method in brief: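 Cell-free radioligand competition binding on hERG protein extracted from CHO cells, read by filter-based scintillation counting 0.75 h after dosing. Primary screen at 25 uM in duplicate, actives followed in concentration series. Signal loss fitted versus DMSO.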

[20] = target: rat Glutamate, MK-801 Agonist Site (GluNMDA_MK801), Grin1 (gene 24408) (UniProt P35439); experiment: NVS_LGIC_rGluNMDA_MK801_Agonist: NovaScreen (NVS) Ligand-Gated Ion Channel Assay for rat Glutamate, MK-801 Agonist Site (GluNMDA_MK801) (AID 2283340)
Method in brief: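 Radioligand binding at MK-801 site in rat forebrain membranes, 1.5 h incubation, filter-based scintillation counting. Initially 25 uM in duplicate; actives then run in concentration-response up to 50 uM, fitted for gain of signal versus DMSO.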

Measured: AC50

O=C(OCCCCCOC(=O)c1ccccc1)c1ccccc1
inactive: [1] | [2] | [5]
inconclusive: [3] 5.91 µM | [4] 25 µM | [6] 25 µM | [7] 0.117 µM | [8] 25 µM | [9] 0.45 µM

CN(C)c1ccc(Cc2ccc(N(C)C)cc2)cc1
inactive: [10]
inconclusive: [11] 25 µM

Oc1ccc2c(c1)OC[C@@H](N1CCC(O)(c3ccc(F)cc3)CC1)[C@H]2O
inconclusive: [13] 0.494 µM | [14] 3.29 µM | [15] 12.5 µM | [16] 0.0563 µM | [17] 2.48 µM | [19] 12.5 µM | [20] 12.5 µM
inactive: [12] | [18]
